The labels stand for the following.
B1: Tripartite motif protein 45 (predicted), isoform CRA_b (protein, UniProt D4A7S9 1-579)
chain: MSENRKPLPGFVNKLQDASASGSSGKTHCPSCLRLFKVPRLLPCLHTVCTSCLERLDPFSVVDIRGGDSDTSSEGSIFQEPKSCSLKPQIGILCPVCDAQVDLPLGGVKALTVDHLAMNDVMLESLHGEGQGLVCDLCSDREVEKRCQTCKANLCHFCCQAHRRQKKTTDHTMVDLKDLKGYSRVGKPILCPSHPAEELRLFCELCDRPVCRDCVVGEHREHPYDFTSNVIHKHGDSVRELLRDTQPHVEALEDALAQIKSSNNALQERVEAVAADVRTFSEGYIRAIEEHRDKLLRQLDDIRVQKENSLQLQKAQLEQLLADMRTGVEFTEHLLTSGSDLEILVTKGVVVERLRKLNKVEYSARPGVNHKICFSPQEKARCQGYEVYGAINTQEVDPAQCVLQGEDLHRAREKQTASFTLVCKDATGESMSRGGDNVRVEVVPKNKKDSPIRTVVQDNKDGSYRVSYTPKEPGVYTVWVGIREQQVQGSPFNVTVRRKHRPHPGVFHCCTFCSSGGQKTARCACGGTMPGGYLGCGHGHKGHPGRPHWSCCGKFIEKSECSYSTGQSAPRSLLRTVAL
B2: Plasminogen receptor (KT) (protein, UniProt D4ACN8 1-147)
chain: MGFIFSKSMNENMKNQQEFMVMHARLQLERQLIMQNEMRERQMAMQIAWSREFLKYFGTFFGIATISLAAGAIKRKKPAFLIPIVPLSFIFTYQYDLGYGTLLQRMKSEAEDILETEKTKLELPKGLITFESLEKARREQSKFFSDK
B3: CTTNBP2 N-terminal like (predicted), isoform CRA_a (protein, UniProt D4A8X8 1-638)
chain: MNLEKLSKPELLTLFSILEGELEARDLVIEALKAQHRDTFIEERYGKYNISDPLMALQRDFETLKEKNDSEKQPVCTNPLSILKAVMKQCKNMQERMLSQLAAAESRHRKVILDLEEERQRHAQDTAEGDDVTYMLEKERERLTQQLEFEKSQVKKFEKEQKKLSSQLEEERSRHKQLSSMLVLECKKATSKAAEEGQKAGELSLKLEKEKSRASKLEEELAAERKRGLQTEAQVEKQLSEFDIEREQLRAKLNREENRTRALKEEMESLKKLVKDLEAAQQHSNSSEQGREPVTTSRGTATEPPMRVSVFCQTESIQTERSHSSIMTKLTDTGLPGPSSAPYPYAKANGHCDPETQTTRELTSDSSTENQGPPREKSAVPAQEKPMENGGCPVGTEIPVTMPSHLPSSGSSLSPSSTASSSLTSSPCSSPVLTKRLLGSSVSSPGYQSSYQVGVNQRFHAARHRFQSQADQDQQASGLQSPPSRDLSPTLLDNSAAKQLARNTVTQVLSRFTNQGPIKPVSPNSSPFGTDYRNLVSTANPRGDTSHSPTPGKVSSPLSPLSPGIKSPTIPRAERGNPPPIPPKKPGLTPSQSVATPGTKTHSQASSLTTTEDLASSCSPSAVVANGKDVEMLVPTSS
B4: RCG21137 (protein, UniProt Q562B5 1-288)
chain: MAFRQALQLAACGLAGGSAAVLFSAVAVGKPRAGGDADTRTTEPLAWTGARPGHGVWDSNWDRREPLSLINLKKRNVEFGEDELASRLDHYKAKATRHIFLIRHSQYNVDGSMEKDRTLTPLGREQAELTGIRLASLGLKFNKIVHSSMTRAVETTDIISKHLPGVCRVSTDLLREGAPIEPDPPVSHWKPEAVQYYEDGARIEAAFRNYIHRADAKQEEDSYEIFICHANVIRYIVCRALQFPPEGWLRLSLNNGSITHLVIRPNGRVALRTLGDTGFMPPDKITRS
B5: Trafficking protein particle complex 12 (protein, UniProt D3ZE49 1-798)
chain: METAKDGEQSPSEASPPTQAGPETISEPVPLEEEGQPLYHEETIDLGGDDFASEETEPTSEGSHNFGDKLNEHMMESVLISDSPNNSEGDVGDLGCLQDVGEPPRGATDHRLPDSTDKEVVDTLSNGSETDGDDTPRDISDMTPDSRASLKEDSTQEDVPAMPALENAGTEEVGPKDSLVPREEQTSEVSSSQSSSKDEPLPVCTIFSQATSTSSQPHLFLQDGFESQMVKSPSFSSTSETSAKTPPPMVQPSPSLSTFFGDTMSSNSLASDFFDSFTTSTFISVSNPNAGSPVPEKLASLTAPVGEKSPDSTSPSYSTRMDRSESGVSRAALDVPESPKPFSQIQAVFAGSDDPFATALSMSEMDRRNDAWLPSQATREVLMSVATQQYGTVFIDKENLTMPGLKFDNIQGDAVKDLMLRFLGEKAAAKRQVLNASSVEQSFVGLKQLISCRNWRAAVDLCGRLLTAHGQGYGKSGLPTNHTTDSLQLWFVRLALLVKLGLFQNAEMEFEPFGNLDQPDLYYEYYPHVYPGRRGSMVPFSMRILHAELQQYLGNPQESLDRLHRVKTVCSKILANLEQGLAEDGGLSSVTQESRQASVQLWRSRLGRVLYSMANCLLLMKDYVLAVNAYLTVIKYYPEQEPQLLSGIGRILLQQIGDIKTAEKYFQDVEKVTQKLDGLQGKIMVLMNRAFLYLGQNNFAEAHKFFTEILRMDPTNAVANNNAAVCLLYLGKLKDSLRQLEAMVQQDPRHYLHESVLFNLTTMYELESSRSMQKKQSLLEAVASKEGDSFNTQCLKLA
B6: RAS protein activator like 1 (GAP1 like) (predicted) (protein, UniProt D3ZHY9 1-801)
chain: MAKSGSLSIRVVEGRALPAKDVSGSSDPYCLVKVDDEVVARTATIWRSLSPFWGEEYTVHLPLDFHHLAFYVLDEDTVGHDDIIGKISLSKEAITADPRGIDSWINLSRVDPDEEVQGEVCLAVKLLEDARGRCLRCHVRQARDLAPRDISGTSDPFARVFWGSRSLETSTIKKTRFPHWDEVLELREAPGTTSPLRVELWDWDMVGKNDFLGMVEFTPQTLQQKPPNGWFRLLPFPRAEDSGGSLGALRLKVRLTEDRVLPSQYYQPLMELLLESVQGPAEEDTTSPLALLEELASGDCRQDLATKLVKLFLGRGLAGPFLDYLTRREVARTNDPNTLFRSNSLASKSMEQFMKLVGMRYLHEVLRPVISRVFEEKKYMELDPSKMDLNRSRRISFKGTPTEEQVRETSLGLLTGYLGSVVDAIVSSAGRCPLALRLAFKQLQQCVEKRFPGMEHQDVKYLATSGFLFLRFFAPAILTPKLFDLRDHHADPQTSRSLLLLAKAVQSIGNLGQQLGQGKEQWLAPLHPFLLQSISRVRDFLDQLVDVDGDEEAGGSTCALVQPSTIVREGFLLKRKEEPASLATRFAFKKRYFRLSGRDLSYSKTPEWQVHSSIPLSCIRAVERVDEGAFQLPHVMQVVTQDGTGASHTTYLQCKNVNDLNQWLSALRKASAPNPGKLAACHPGAFRSGRWTCCLQAERSAVGCSRTHSAVTLGDWSDPLDPDAEAQMVYRQLLLGRDQLRLKLLEDSSLDTAPDVDPGKDSSAVDGPCAEVLAQQREATTRLLQVLEDLEQAHEEFQKRG

No constants are given. Whether binding was seen depends on the method and setting. In cells and extracts the contact can be indirect. These calls come from enrichment with a bait or labelling near it, and not all partners need be listed.

The assay addresses Traf2-and NcK-interacting kinase (rat (endogenous in rat hippocampus)). The assay can be described thus: affinity purification with mass spectrometry; anti-TNIK immunoprecipitate from rat hippocampal lysate (control: normal mouse IgG), SDS-PAGE, silver stain, bands seen only in the TNIK Co-IP cut out, trypsin digest, LC-MS/MS, Mascot against UniProt Rattus norvegicus, score >=20.
With B1, the binding entry is recorded as “binds”.

Regarding B2, the binding entry was “binds”.

With B3, the binding entry is recorded as “binds”.

Take B4: the binding entry is “binds”.

B5: the binding result is listed as “binds”.

Consider B6, for which the binding entry was “binds”.
